Experimental data reported in publication PMC7116222.
Results are given in words; binding and its absence hold for the method and conditions named. In cells and extracts the contact can be indirect. Some results given as binding are weak or reduced against the parent protein; the word gives no strength.

Target: T1, SLUG (human (endogenous in MCF7)) (UniProt O43623)
T1 sequence: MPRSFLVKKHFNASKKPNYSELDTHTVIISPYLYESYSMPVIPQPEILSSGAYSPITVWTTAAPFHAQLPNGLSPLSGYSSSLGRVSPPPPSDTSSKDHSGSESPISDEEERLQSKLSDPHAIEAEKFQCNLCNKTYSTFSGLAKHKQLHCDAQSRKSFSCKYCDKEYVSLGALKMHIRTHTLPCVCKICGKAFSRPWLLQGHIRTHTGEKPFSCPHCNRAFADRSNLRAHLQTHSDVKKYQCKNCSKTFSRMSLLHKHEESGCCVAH
Test: co-IP; endogenous proteins in lysate of hypoxia-treated MCF7 cells; IP with anti-SLUG or anti-RBFOX2 antibody, normal rabbit or mouse IgG as control, Protein-G Dynabeads, 4°C; lysis and wash buffer 10 mM Tris pH 7.5, 150 mM NaCl, 0.5 mM EDTA, 0.5% NP-40; immunoblot with anti-SLUG and anti-RBFOX2

binding: binds
B1: RBFOX2 (protein, UniProt O43251 1-390)
chain: MQNEPLTPGYHGFPARDSQGNQEPTTTPDAMVQPFTTIPFPPPPQNGIPTEYGVPHTQDYAGQTGEHNLTLYGSTQAHGEQSSNSPSTQNGSLTTEGGAQTDGQQSQTQSSENSESKSTPKRLHVSNIPFRFRDPDLRQMFGQFGKILDVEIIFNERGSKGFGFVTFENSADADRAREKLHGTVVEGRKIEVNNATARVMTNKKMVTPYANGWKLSPVVGAVYGPELYAASSFQADVSLGNDAAVPLSGRGGINTYIPLISLPLVPGFPYPTAATTAAAFRGAHLRGRGRTVYGAVRAVPPTAIPAYPGVVYQDGFYGADLYGGYAAYRYAQPATATAATAAAAAAAAYSDGYGRVYTADPYHALAPAASYGVGAVASLYRGGYSRFAPY
